This is an account of results in article PMC5690286.

These are yes or no findings as the source states them, for the method shown. In cells and extracts the contact can be indirect. Binding calls can cover weak binding; strength is not graded here. Tags and fused reporters may be left off the sequences shown.

Test [1] concerns the target T1, Myc-tagged Patj (HEK293T) (Drosophila) (UniProt Q9NB04).
T1 sequence: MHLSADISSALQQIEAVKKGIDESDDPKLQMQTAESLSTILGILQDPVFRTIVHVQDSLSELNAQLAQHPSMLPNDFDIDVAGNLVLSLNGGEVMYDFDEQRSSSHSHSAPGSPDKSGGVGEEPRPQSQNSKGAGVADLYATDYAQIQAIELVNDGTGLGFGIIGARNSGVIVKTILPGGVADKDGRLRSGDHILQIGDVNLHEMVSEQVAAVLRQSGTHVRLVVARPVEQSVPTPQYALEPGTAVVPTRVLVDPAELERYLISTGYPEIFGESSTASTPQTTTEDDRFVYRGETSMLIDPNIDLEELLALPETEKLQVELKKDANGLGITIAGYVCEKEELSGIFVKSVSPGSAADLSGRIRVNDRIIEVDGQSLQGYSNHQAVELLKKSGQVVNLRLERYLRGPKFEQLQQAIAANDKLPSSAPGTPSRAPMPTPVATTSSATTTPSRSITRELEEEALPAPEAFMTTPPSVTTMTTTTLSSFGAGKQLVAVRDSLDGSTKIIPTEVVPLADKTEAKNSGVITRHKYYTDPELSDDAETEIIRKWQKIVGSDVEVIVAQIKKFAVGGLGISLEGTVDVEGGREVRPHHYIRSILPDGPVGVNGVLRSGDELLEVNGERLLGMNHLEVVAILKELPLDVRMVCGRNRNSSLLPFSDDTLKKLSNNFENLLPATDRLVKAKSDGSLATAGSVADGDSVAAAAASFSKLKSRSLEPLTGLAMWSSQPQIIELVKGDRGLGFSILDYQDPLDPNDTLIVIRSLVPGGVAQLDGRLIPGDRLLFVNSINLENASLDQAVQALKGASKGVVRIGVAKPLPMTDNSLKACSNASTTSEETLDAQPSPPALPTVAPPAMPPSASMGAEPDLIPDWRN
Nature of the test: co-IP; HEK293T cells transfected with Flag-Atg9 and Myc-Patj; immunoprecipitation with anti-Flag or anti-Myc; lysis buffer 50 mM Tris-HCl pH 7.4, 150 mM NaCl, 1% Triton, 10% glycerol, 1 mM EDTA; 4°C overnight.

Test [2] addresses GST-fused C-terminus (residues 668-845) of Atg9 (Drosophila). Nature of the test: pull-down; lysates of cells expressing Myc-Patj incubated with GST or GST-Atg9-C (amino acids 668-845); Western blot with anti-Myc; only the target purified. Background: A western blot detects proteins with antibodies after separation by electrophoresis.
In test [3] the target is Flag-TSC2 (Drosophila). Nature of the test: co-IP; S2 cells treated with dsRNAs targeting luciferase or Atg1, transfected with pWA-Gal4, pUAS-GFP-Atg9, pUAS-Myc-Patj and pUAS-Flag-TSC2 together; immunoprecipitation with anti-Flag.
The target of test [4] is Flag-TSC2 (Drosophila). In words: co-IP; S2 cells transfected with pWA-Gal4 and two pUAS plasmids (Flag-TSC2 with Myc-Patj or with GFP-Atg9); immunoprecipitation with anti-Flag, anti-Myc or anti-GFP; lysis buffer 50 mM Tris-HCl pH 7.4, 150 mM NaCl, 1% Triton.
In test [5] the target is Flag-tagged Atg9 (Drosophila). Nature of the test: co-IP; HEK293T cells transfected with Flag-Atg9 and Myc-Patj; immunoprecipitation with anti-Flag or anti-Myc; lysis buffer 50 mM Tris-HCl pH 7.4, 150 mM NaCl, 1% Triton, 10% glycerol, 1 mM EDTA; 4°C overnight.

With Flag-tagged Atg9 (Drosophila), the binding result in test [1] is “binds”.

B1: Myc-tagged Patj in the lysate used for the GST pull-down (protein, UniProt Q9NB04 1-871)
chain: MHLSADISSALQQIEAVKKGIDESDDPKLQMQTAESLSTILGILQDPVFRTIVHVQDSLSELNAQLAQHPSMLPNDFDIDVAGNLVLSLNGGEVMYDFDEQRSSSHSHSAPGSPDKSGGVGEEPRPQSQNSKGAGVADLYATDYAQIQAIELVNDGTGLGFGIIGARNSGVIVKTILPGGVADKDGRLRSGDHILQIGDVNLHEMVSEQVAAVLRQSGTHVRLVVARPVEQSVPTPQYALEPGTAVVPTRVLVDPAELERYLISTGYPEIFGESSTASTPQTTTEDDRFVYRGETSMLIDPNIDLEELLALPETEKLQVELKKDANGLGITIAGYVCEKEELSGIFVKSVSPGSAADLSGRIRVNDRIIEVDGQSLQGYSNHQAVELLKKSGQVVNLRLERYLRGPKFEQLQQAIAANDKLPSSAPGTPSRAPMPTPVATTSSATTTPSRSITRELEEEALPAPEAFMTTPPSVTTMTTTTLSSFGAGKQLVAVRDSLDGSTKIIPTEVVPLADKTEAKNSGVITRHKYYTDPELSDDAETEIIRKWQKIVGSDVEVIVAQIKKFAVGGLGISLEGTVDVEGGREVRPHHYIRSILPDGPVGVNGVLRSGDELLEVNGERLLGMNHLEVVAILKELPLDVRMVCGRNRNSSLLPFSDDTLKKLSNNFENLLPATDRLVKAKSDGSLATAGSVADGDSVAAAAASFSKLKSRSLEPLTGLAMWSSQPQIIELVKGDRGLGFSILDYQDPLDPNDTLIVIRSLVPGGVAQLDGRLIPGDRLLFVNSINLENASLDQAVQALKGASKGVVRIGVAKPLPMTDNSLKACSNASTTSEETLDAQPSPPALPTVAPPAMPPSASMGAEPDLIPDWRN
For the molecule B1, in test [2], the binding result was “binds”.

B2: Myc-tagged Patj (S2 cells) (protein, UniProt Q9NB04 1-871)
chain: MHLSADISSALQQIEAVKKGIDESDDPKLQMQTAESLSTILGILQDPVFRTIVHVQDSLSELNAQLAQHPSMLPNDFDIDVAGNLVLSLNGGEVMYDFDEQRSSSHSHSAPGSPDKSGGVGEEPRPQSQNSKGAGVADLYATDYAQIQAIELVNDGTGLGFGIIGARNSGVIVKTILPGGVADKDGRLRSGDHILQIGDVNLHEMVSEQVAAVLRQSGTHVRLVVARPVEQSVPTPQYALEPGTAVVPTRVLVDPAELERYLISTGYPEIFGESSTASTPQTTTEDDRFVYRGETSMLIDPNIDLEELLALPETEKLQVELKKDANGLGITIAGYVCEKEELSGIFVKSVSPGSAADLSGRIRVNDRIIEVDGQSLQGYSNHQAVELLKKSGQVVNLRLERYLRGPKFEQLQQAIAANDKLPSSAPGTPSRAPMPTPVATTSSATTTPSRSITRELEEEALPAPEAFMTTPPSVTTMTTTTLSSFGAGKQLVAVRDSLDGSTKIIPTEVVPLADKTEAKNSGVITRHKYYTDPELSDDAETEIIRKWQKIVGSDVEVIVAQIKKFAVGGLGISLEGTVDVEGGREVRPHHYIRSILPDGPVGVNGVLRSGDELLEVNGERLLGMNHLEVVAILKELPLDVRMVCGRNRNSSLLPFSDDTLKKLSNNFENLLPATDRLVKAKSDGSLATAGSVADGDSVAAAAASFSKLKSRSLEPLTGLAMWSSQPQIIELVKGDRGLGFSILDYQDPLDPNDTLIVIRSLVPGGVAQLDGRLIPGDRLLFVNSINLENASLDQAVQALKGASKGVVRIGVAKPLPMTDNSLKACSNASTTSEETLDAQPSPPALPTVAPPAMPPSASMGAEPDLIPDWRN
Regarding B2, the binding result with Flag-TSC2 (Drosophila) [3] and with Flag-TSC2 (Drosophila) [4] was “binds” throughout.

B3: Myc-tagged Patj (HEK293T) (protein, UniProt Q9NB04 1-871)
chain: MHLSADISSALQQIEAVKKGIDESDDPKLQMQTAESLSTILGILQDPVFRTIVHVQDSLSELNAQLAQHPSMLPNDFDIDVAGNLVLSLNGGEVMYDFDEQRSSSHSHSAPGSPDKSGGVGEEPRPQSQNSKGAGVADLYATDYAQIQAIELVNDGTGLGFGIIGARNSGVIVKTILPGGVADKDGRLRSGDHILQIGDVNLHEMVSEQVAAVLRQSGTHVRLVVARPVEQSVPTPQYALEPGTAVVPTRVLVDPAELERYLISTGYPEIFGESSTASTPQTTTEDDRFVYRGETSMLIDPNIDLEELLALPETEKLQVELKKDANGLGITIAGYVCEKEELSGIFVKSVSPGSAADLSGRIRVNDRIIEVDGQSLQGYSNHQAVELLKKSGQVVNLRLERYLRGPKFEQLQQAIAANDKLPSSAPGTPSRAPMPTPVATTSSATTTPSRSITRELEEEALPAPEAFMTTPPSVTTMTTTTLSSFGAGKQLVAVRDSLDGSTKIIPTEVVPLADKTEAKNSGVITRHKYYTDPELSDDAETEIIRKWQKIVGSDVEVIVAQIKKFAVGGLGISLEGTVDVEGGREVRPHHYIRSILPDGPVGVNGVLRSGDELLEVNGERLLGMNHLEVVAILKELPLDVRMVCGRNRNSSLLPFSDDTLKKLSNNFENLLPATDRLVKAKSDGSLATAGSVADGDSVAAAAASFSKLKSRSLEPLTGLAMWSSQPQIIELVKGDRGLGFSILDYQDPLDPNDTLIVIRSLVPGGVAQLDGRLIPGDRLLFVNSINLENASLDQAVQALKGASKGVVRIGVAKPLPMTDNSLKACSNASTTSEETLDAQPSPPALPTVAPPAMPPSASMGAEPDLIPDWRN
As to B3, the binding entry in test [5] is on record as “binds”.
